Test results taken from patent publication US6599931B1, “Test system for characterizing the compatibility of bioactive substances and polyvinylpyrrolidone” (Abbott GmbH & Co. KG, priority 1998, dated 2003).

Assay: Dissolving and recrystallization behavior of active ingredient in 1,3-bis(1-pyrrolidonyl)butane (DHVP) test system
Conditions: heated
Description: The ratios of the amounts can in principle be chosen without restriction and naturally depend essentially on the properties of the active ingredient. However, it is advisable to choose the concentration ranges in the test system so that they correspond to active ingredient contents typical of extruded forms, that is to say generally from 0.1 to 70, preferably 10 to 30% by weight of active ingredient, based on the total weight of the test system. However, it is also possible in the individual case to prepare solutions or dispersions with a concentration of 60% by weight or even higher. It is preferred to carry out test series with increasing active ingredient contents. The active ingredient(s) are weighed out, mixed with the appropriate amounts of DHVP and preferably stirred, normally with a typical laboratory magnetic stirrer at 5 to 200 rpm. […] The heating is preferably carried out so as to correspond approximately to the heating rate in a subsequent melt formulation, that is to say at 0.5 to 5° C./min. The test system is preferably heated to a maximum of 140° C. However, it is also possible in the individual case to heat to the boiling point of DHVP. The test system is then allowed to cool to room temperature.
The prepared test systems are assessed spectroscopically. […] The recrystallization behavior is also assessed. […]

Sol. at (temperature at which solution forms) (10% by weight in DHVP): Sol. at 50 °C
Sol. at (temperature at which solution forms) (30% by weight in DHVP): Sol. at 50 °C
Structure (SMILES): COC(=O)C1=C(C)NC(C)=C(C(=O)OC)C1c1ccccc1[N+](=O)[O-] [Nifedipine]
